Results are given in words; binding and its absence hold for the method and conditions named. In cells and extracts the contact can be indirect. Some binding calls cover weakened binding; strength is not graded here.
Target: TGF-β receptor type II (TβRII), flag-tagged (UniProt P37173)
Test: co-IP; GFP-IFT20 and/or flag-TβRII transfected in primary osteoblasts; which tag was precipitated is not told

Sequences of proteins named here, by UniProt entry; tags and fusion partners are left off. Residues count along the entry.
UniProt P37173, residues 23-567: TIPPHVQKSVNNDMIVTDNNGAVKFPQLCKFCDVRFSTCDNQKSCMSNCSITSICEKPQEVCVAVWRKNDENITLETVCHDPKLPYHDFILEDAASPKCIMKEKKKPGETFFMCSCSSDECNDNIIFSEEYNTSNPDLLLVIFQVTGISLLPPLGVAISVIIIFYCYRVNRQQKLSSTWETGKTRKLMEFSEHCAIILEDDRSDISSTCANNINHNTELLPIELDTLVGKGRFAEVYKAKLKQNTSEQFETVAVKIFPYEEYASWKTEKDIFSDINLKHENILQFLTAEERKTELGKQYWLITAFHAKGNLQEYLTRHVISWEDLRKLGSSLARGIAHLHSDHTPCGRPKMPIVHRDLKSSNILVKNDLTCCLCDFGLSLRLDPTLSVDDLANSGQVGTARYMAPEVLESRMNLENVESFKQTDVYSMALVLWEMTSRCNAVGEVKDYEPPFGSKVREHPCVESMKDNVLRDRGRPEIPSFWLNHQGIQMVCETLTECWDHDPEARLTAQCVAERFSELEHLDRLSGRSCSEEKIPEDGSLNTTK
UniProt Q61025: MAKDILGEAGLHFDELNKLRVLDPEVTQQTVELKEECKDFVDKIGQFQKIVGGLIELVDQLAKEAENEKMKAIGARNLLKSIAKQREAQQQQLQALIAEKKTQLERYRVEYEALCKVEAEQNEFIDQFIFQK

Substance: intraflagellar transport 20 (IFT20), GFP-tagged (from UniProt Q61025 1-132)
- binding: binds

Source: paper PMC10984095
